Measured values from patent US7612045B2, “Compounds, compositions and methods for controlling biofilms and bacterial infections” (Sequoia Sciences, Inc., priority 2005, dated 2009).
Some of these results come from one statement about several compounds together.

Test system: P. aeruginosa strain PAO1
Assay: Rotating disk reactor biofilm with tobramycin, culturable bacteria count
Type: cell-based, Pseudomonas aeruginosa
Details: no Tobramycin, expected

Compound | log10 CFU reduction with compound alone relative to ethanol only [log10 CFU]
C[C@@H]1CC[C@]2(C(=O)O)CCC3(C)C(=CCC4C5(C)C[C@@H](O)[C@H](O)C(C)(C)C5CCC43C)C2[C@H]1C (stereo partly drawn) [Compound 108, 2α,3β-dihydroxy-12-ursen-28-oic acid] | ≤ 0.5
C[C@@H]1CCC2(C(=O)O)CC[C@]3(C)C(=CCC4[C@@]5(C)C[C@@H](O)[C@H](O)[C@@](C)(CO)C5CC[C@]43C)C2[C@H]1C (stereo partly drawn) [Compound 255, Asiatic Acid] | ≤ 0.5
C[C@H]1[C@H](C)CC[C@]2(C(=O)O)CC[C@]3(C)C(=CC[C@@H]4[C@@]5(C)C[C@@H](O)[C@H](O)[C@@](C)(CO)[C@@H]5[C@H](O)C[C@]43C)[C@H]12 [Compound 314, Madecassic Acid] | ≤ 0.5
